Measured values published in publication doi:10.1101/2024.07.22.604556.
These are yes or no findings as the source states them, for the method shown. Binding seen in cells or lysates may run through a third protein. Some entries that bind do so weakly or less than the wild type.

B1: XPD subunit of the TFIIH complex, P18074 1-760 (protein)
chain: MKLNVDGLLVYFPYDYIYPEQFSYMRELKRTLDAKGHGVLEMPSGTGKTVSLLALIMAYQRAYPLEVTKLIYCSRTVPEIEKVIEELRKLLNFYEKQEGEKLPFLGLALSSRKNLCIHPEVTPLRFGKDVDGKCHSLTASYVRAQYQHDTSLPHCRFYEEFDAHGREVPLPAGIYNLDDLKALGRRQGWCPYFLARYSILHANVVVYSYHYLLDPKIADLVSKELARKAVVVFDEAHNIDNVCIDSMSVNLTRRTLDRCQGNLETLQKTVLRIKETDEQRLRDEYRRLVEGLREASAARETDAHLANPVLPDEVLQEAVPGSIRTAEHFLGFLRRLLEYVKWRLRVQHVVQESPPAFLSGLAQRVCIQRKPLRFCAERLRSLLHTLEITDLADFSPLTLLANFATLVSTYAKGFTIIIEPFDDRTPTIANPILHFSCMDASLAIKPVFERFQSVIITSGTLSPLDIYPKILDFHPVTMATFTMTLARVCLCPMIIGRGNDQVAISSKFETREDIAVIRNYGNLLLEMSAVVPDGIVAFFTSYQYMESTVASWYEQGILENIQRNKLLFIETQDGAETSVALEKYQEACENGRGAILLSVARGKVSEGIDFVHHYGRAVIMFGVPYVYTQSRILKARLEYLRDQFQIRENDFLTFDAMRHAAQCVGRAIRGKTDYGLMVFADKRFARGDKRGKLPRWIQEHLTDANLNLTVDEGVQVAKYFLRQMAQPFHREDQLGLSLLSLEQLESEETLKRIEQIAQQL

Columns and labels:
[1] = molecular target: CSB-mScarletI (knock-in) (human (endogenous in HCT116)) (UniProt Q03468); assay: co-IP
[2] = molecular target: CSB-mScarletI (knock-in) (human (endogenous in HCT116)), Q03468; assay: co-IP; conditions: remark: other sources report otherwise

Molecule | binding [1] | binding [2]
CUL4A (from UniProt Q13619 1-759) | binds | 
B1 |  | binds
